Reference: article PMC11408250
No constants are given. Whether binding was seen depends on the method and setting. Binding seen in cells or lysates may run through a third protein. These calls come from enrichment with a bait or labelling near it, and not all partners need be listed. Sequences can lack the tags named with a protein.

B1: Cytoplasmic Linker Associated Protein 2 (protein, UniProt Q8BRT1 1-1286)
chain: MRRLICKRICDYKSFDDEESVDGNRPSSAASAFKVPAPKTPGNPVSSARKPGSAGGPKVGGPSKEGGAGAVDEDDFIKAFTDVPSVQIYSSRELEETLNKIREILSDDKHDWDQRANALKKIRSLLVAGAAQYDCFFQHLRLLDGALKLSAKDLRSQVVREACITVAHLSTVLGNKFDHGAEAIVPTLFNLVPNSAKVMATSGCAAIRFIIRHTHVPRLIPLITSNCTSKSVPVRRRSFEFLDLLLQEWQTHSLERHAAVLVETIKKGIHDADAEARVEARKTYMGLRNHFPGEAETLYNSLEPSYQKSLQTYLKSSGSVASLPQSDRSSSSSQESLNRPFSSKWSTANPSTVAGRVSVGGSKANPLPGSLQRSRSDIDVNAAAGAKAHHAAGQAVRSGRLGAGALNPGSYASLEDTSDKMDGTASDDGRVRAKLSTPLVAVGNAKTDSRGRSRTKMVSQSQPGSRSGSPGRVLTTTALSTVSSGAQRVLVNSASAQKRSKIPRSQGCSREASPSRLSVARSSRIPRPSVSQGCSREASRESSRDTSPVRSFQPLGPGYGISQSSRLSSSVSAMRVLNTGSDVEEAVADALLLGDIRTKKKPARRRYESYGMHSDDDANSDASSACSERSYSSRNGSIPTYMRQTEDVAEVLNRCASSNWSERKEGLLGLQNLLKNQRTLSRIELKRLCEIFTRMFADPHGKVFSMFLETLVDFIQVHKDDLQDWLFVLLTQLLKKMGADLLGSVQAKVQKALDITRESFPNDLQFNILMRFTVDQTQTPSLKVKVAILKYIETLAKQMDPRDFTNSSETRLAVSRVITWTTEPKSSDVRKAAQSVLISLFELNTPEFTMLLGALPKTFQDGATKLLHNHLRNTGNGTQSSMGSPLTRPTPRSPANWSSPLTSPTNTSQNTLSPSAFDYDTENMNSEDIYSSLRGVTEAIQNFSFRSQEDMSEPVRRDPKKEDGDTICSGPGMSDPRAGGDAADGSQPALDNKASLLHSMPLHSSPRSRDYNPYNYSDSISPFNKSALKEAMFDDDADQFPDDLSLDHSDLVAELLKELSNHNERIEERKIALYELMKLTQEESFSVWDEHFKTILLLLLETLGDKEPTIRALALKVLKEILRHQPARFKNYAELTVMKTLEAHKDPHKEVVRSAEEAASVLATSISPEQCIKVLCPIIQTADYPINLAAIKMQTKVIERVSKETLNMLLPEIMPGLIQGYDNSESSVRKACVFCLVAVHAVIGDELKPHLSQLTGSKMKLLNLYIKRAQTGSAGADPTADVSGQS
B2: Protein phosphatase 1B (protein, UniProt P36993 1-390)
chain: MGAFLDKPKTEKHNAHGAGNGLRYGLSSMQGWRVEMEDAHTAVVGIPHGLDNWSFFAVYDGHAGSRVANYCSTHLLEHITTNEDFRAADKSGSALEPSVESVKTGIRTGFLKIDEYMRNFSDLRNGMDRSGSTAVGVMVSPTHMYFINCGDSRAVLCRNGQVCFSTQDHKPCNPVEKERIQNAGGSVMIQRVNGSLAVSRALGDYDYKCVDGKGPTEQLVSPEPEVYEIVRAEEDEFVVLACDGIWDVMSNEELCEFVKSRLEVSDDLENVCNWVVDTCLHKGSRDNMSVVLVCFSNAPKVSEEAVKRDSELDKHLESRVEEIMQKSGEEGMPDLAHVMRILSAENIPNLPPGGGLAGKRHVIEAVYSRLNPHKDNDGGAGDLEDSLVAL
B3: SOGA Family Member 3 (protein, UniProt Q6NZL0 26-945)
chain: RMHPEGCSRKQQRAQSPARPRDNSLRQTAGATRSPLGVGPKLNSVRQQQLQQQQQQGNKITGRSTSGTGSRGLGGGAEKAVPSIPKGAVPGAVQPAPGAEGSPAAILASVSFRRSGQPEEAPREIESGPSKVGEPPPLGGVGGGGEGGGAGGGPGDREGGAPQPPPPRGWRGKGVRATQRGSSVAEGVSPSPPTAATSKTPGPGSRNSGSGSTGSGSGGGGSYWKEGCLQSELIQFHLKKERAAAAAAAAQMHTKNGGGGSRSSPVAGAPAICEPLVVPSSSPMAAAAEGPQQSAEGNGSGGAMQAAAPPSSQPHSQQLQEQEDMQEEMEKLREENETLKNEIDELRTEMDEMRDTFFEEDACQLQEMRHELERANKNCRILQYRLRKAERKRLRYAQTGEIDGELLRSLEQDLKVAKDVSVRLHHELENVEEKRTTTEDENEKLRQQLIEVEIAKQALQNELEKMKELSLKRRGSKDLPKSEKKAQQTPTEDDNEDLKCQLQFVKEEAALMRKKMAKIDKEKDRFEHELQKYRSFYGDLDSPLPKGEAGGPPSTREAELKLRLRLVEEEANILGRKIVELEVENRGLKAELDDLRGEDFNGSSNPLMREQSESLSELRQHLQLVEDETELLRRNVADLEEQNKRITAELNKYKYKSSGHDSSRHHDNAKTEALQEELKAARLQINELSGKVMQLQYENRVLMSNMQRYDLASHLGIRGSPRDSDAESDAGKKESDDDSRPPHRKREGPIGGESDSEEVRNIRSLTPTRSFYPTPGPWPKSFSDRQQMKDIRSEAERLGKTIDRLIADTSTIITEARIYVANGDLFGLMDEEDDGSRIREHELLYRINAQMKAFRKELQTFIDRLEVPKSADDRGAEEPISVSQMFQPIILLILILVLFSSLSYTTIFKLVFLFTLFFVL
B4: SH3 And Multiple Ankyrin Repeat Domains 2 (protein, UniProt Q80Z38 1-1476)
chain: MKSLLNAFTKKEVPFREAPAYSNRRRRPPNTLAAPRVLLRSNSDNNLNAGAPEWAVCSAATSHRSLSPQLLQQTPSKPDGATKSLGSYTPGPRSRSPSLNRLGGTAEDGKRTQPHWHVGSPFTPGANKDSLSTFEYPGPRRKLYSAVPGRLFVAVKPYQPQVDGEIPLHRGDRVKVLSIGEGGFWEGSARGHIGWFPAECVEEVQCKPRDSQAETRADRSKKLFRHYTVGSYDSFDAASDCIIEDKTVVLQKKDNEGFGFVLRGAKADTPIEEFTPTPAFPALQYLESVDEGGVAWQAGLRTGDFLIEVNNENVVKVGHRQVVNMIRQGGNHLILKVVTVTRNLDPDDTARKKAPPPPKRAPTTALTLRSKSMTAELEELGLSLVDKASVRKKKDKPEEIVPASKPSRTAENVAIESRVATIKQRPTSRCFPAASDVNSVYERQGIAVMTPTVPGSPKGPFLGLPRGTMRRQKSIDSRIFLSGITEEERQFLAPPMLKFTRSLSMPDTSEDIPPPPQSVPPSPPPPSPTTYNCPRSPTPRVYGTIKPAFNQNPVVAKVPPATRSDTVATMMREKGMFYRRELDRFSLDSEDVYSRSPAPQAAFRTKRGQMPENPYSEVGKIASKAVYVPAKPARRKGVLVKQSNVEDSPEKTCSIPIPTIIVKEPSTSSSGKSSQGSSMEIDPQATEPGQLRPDDSLTVSSPFAAAIAGAVRDREKRLEARRNSPAFLSTDLGDEDVGLGPPAPRMQASKFPEEGGFGDEDETEQPLLPTPGAAPRELENHFLGGGEAGAQGEAGGPLSSTSKAKGPESGPAAPLKSSSPAGPENYVHPLTGRLLDPSSPLALALSARDRAMQESQQGHKGEAPKADLNKPLYIDTKMRPSVESGFPPVTRQNTRGPLRRQETENKYETDLGKDRRADDKKNMLINIVDTAQQKSAGLLMVHTVDVPMAGPPLEEEEDREDGDTKPDHSPSTVPEGVPKTEGALQISAAPEPAVAPGRTIVAAGSVEEAVILPFRIPPPPLASVDLDEDFLFTEPLPPPLEFANSFDIPDDRAASVPALADLVKQKKNDTSQPPTLNSSQPANSTDSKKPAGISNCLPSSFLPPPESFDAVTDSGIEEVDSRSSSDHHLETTSTISTVSSISTLSSEGGESMDTCTVYADGQAFVVDKPPVPPKPKMKPIVHKSNALYQDTLPEEDTDGFVIPPPAPPPPPGSAQAGVAKVIQPRTSKLWGDVPEVKSPILSGPKANVISELNSILQQMNRGKSVKPGEGLELPVGAKSANLAPRSPEVMSTVSGTRSTTVTFTVRPGTSQPITLQSRPPDYESRTSGPRRAPSPVVSPTELSKEILPTPPPPSATAASPSPTLSDVFSLPSQSPAGDLFGLNPAGRSRSPSPSILQQPISNKPFTTKPVHLWTKPDVADWLESLNLGEHKETFMDNEIDGSHLPNLQKEDLIDLGVTRVGHRMNIERALKQLLDR
B5: Solute carrier family 25 member 4 (protein, UniProt P48962 1-298)
chain: MGDQALSFLKDFLAGGIAAAVSKTAVAPIERVKLLLQVQHASKQISAEKQYKGIIDCVVRIPKEQGFLSFWRGNLANVIRYFPTQALNFAFKDKYKQIFLGGVDRHKQFWRYFAGNLASGGAAGATSLCFVYPLDFARTRLAADVGKGSSQREFNGLGDCLTKIFKSDGLKGLYQGFSVSVQGIIIYRAAYFGVYDTAKGMLPDPKNVHIIVSWMIAQSVTAVAGLVSYPFDTVRRRMMMQSGRKGADIMYTGTLDCWRKIAKDEGANAFFKGAWSNVLRGMGGAFVLVLYDEIKKYV

Experiments:
[1] = target: T1, PCDH19-HA-FLAG (Protocadherin 19, endogenous in Pcdh19-HA-FLAG mice) (mouse (endogenous in mouse brain)) (UniProt Q80TF3); test: affinity purification with mass spectrometry; Experiment 2, embryonic: PCDH19-HA-FLAG precipitated with anti-FLAG M2 affinity gel from E17.5-18.5 mouse cortex and hippocampus lysate, control mouse IgG affinity gel; IP Buffer, overnight 4 °C; LC-MS/MS
T1 sequence: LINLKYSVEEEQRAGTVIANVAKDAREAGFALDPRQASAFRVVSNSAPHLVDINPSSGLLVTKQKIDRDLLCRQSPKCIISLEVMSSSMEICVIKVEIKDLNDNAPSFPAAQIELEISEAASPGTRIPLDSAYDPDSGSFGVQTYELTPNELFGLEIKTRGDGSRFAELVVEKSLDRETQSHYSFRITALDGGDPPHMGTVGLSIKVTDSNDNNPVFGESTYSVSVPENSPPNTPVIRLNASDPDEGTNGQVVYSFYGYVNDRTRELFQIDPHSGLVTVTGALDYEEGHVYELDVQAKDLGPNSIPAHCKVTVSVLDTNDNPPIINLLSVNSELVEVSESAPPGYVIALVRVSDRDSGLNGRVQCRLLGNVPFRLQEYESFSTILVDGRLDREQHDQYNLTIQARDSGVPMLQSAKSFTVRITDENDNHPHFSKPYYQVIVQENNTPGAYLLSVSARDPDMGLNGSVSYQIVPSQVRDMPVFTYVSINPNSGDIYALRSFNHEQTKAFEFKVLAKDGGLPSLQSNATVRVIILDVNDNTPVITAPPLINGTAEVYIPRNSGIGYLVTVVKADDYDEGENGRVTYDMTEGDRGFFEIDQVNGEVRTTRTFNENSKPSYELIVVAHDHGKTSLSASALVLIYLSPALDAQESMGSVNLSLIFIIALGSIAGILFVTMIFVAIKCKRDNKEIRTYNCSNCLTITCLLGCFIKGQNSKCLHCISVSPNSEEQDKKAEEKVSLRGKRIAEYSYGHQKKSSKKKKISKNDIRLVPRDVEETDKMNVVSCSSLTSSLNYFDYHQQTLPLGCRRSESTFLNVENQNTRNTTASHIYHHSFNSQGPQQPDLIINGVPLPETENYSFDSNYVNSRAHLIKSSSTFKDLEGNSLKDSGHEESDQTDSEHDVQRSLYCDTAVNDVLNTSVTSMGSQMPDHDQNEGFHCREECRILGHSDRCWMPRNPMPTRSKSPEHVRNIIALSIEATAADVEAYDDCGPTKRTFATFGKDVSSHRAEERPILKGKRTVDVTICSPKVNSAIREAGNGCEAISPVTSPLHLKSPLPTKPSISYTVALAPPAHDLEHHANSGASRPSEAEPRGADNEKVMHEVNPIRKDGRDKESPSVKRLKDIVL

[2] = target: T1, PCDH19-HA-FLAG (Protocadherin 19, endogenous in Pcdh19-HA-FLAG mice) (mouse (endogenous in mouse brain)); test: affinity purification with mass spectrometry; Experiment 2, postnatal: PCDH19-HA-FLAG precipitated with anti-FLAG M2 affinity gel from P6-7 mouse cortex and hippocampus lysate, control mouse IgG affinity gel; IP Buffer, overnight 4 °C; LC-MS/MS
[3] = target: T1, PCDH19-HA-FLAG (Protocadherin 19, endogenous in Pcdh19-HA-FLAG mice) (mouse (endogenous in mouse brain)); test: affinity purification with mass spectrometry; Experiment 1: PCDH19-HA-FLAG precipitated with anti-FLAG M2 affinity gel from E18.5 mouse cortex lysate, control untagged mice; IP Buffer (50 mM Tris-HCl pH 7.5, 150 mM NaCl, 0.2% Triton-X-100, 2 mM EDTA, 0.01% SDS), overnight 4 °C; LC-MS/MS

Row | Binder | binding [1] | binding [2] | binding [3]
1 | B1 | binds | binds | –
2 | B2 | binds | binds | –
3 | B3 | binds | binds | –
4 | B4 | – | – | binds
5 | B5 | – | – | binds
